Data on two substances can be found in publication PMC8936951.

Amino acid sequences for entries named in this document (tags omitted).
UniProt P52332: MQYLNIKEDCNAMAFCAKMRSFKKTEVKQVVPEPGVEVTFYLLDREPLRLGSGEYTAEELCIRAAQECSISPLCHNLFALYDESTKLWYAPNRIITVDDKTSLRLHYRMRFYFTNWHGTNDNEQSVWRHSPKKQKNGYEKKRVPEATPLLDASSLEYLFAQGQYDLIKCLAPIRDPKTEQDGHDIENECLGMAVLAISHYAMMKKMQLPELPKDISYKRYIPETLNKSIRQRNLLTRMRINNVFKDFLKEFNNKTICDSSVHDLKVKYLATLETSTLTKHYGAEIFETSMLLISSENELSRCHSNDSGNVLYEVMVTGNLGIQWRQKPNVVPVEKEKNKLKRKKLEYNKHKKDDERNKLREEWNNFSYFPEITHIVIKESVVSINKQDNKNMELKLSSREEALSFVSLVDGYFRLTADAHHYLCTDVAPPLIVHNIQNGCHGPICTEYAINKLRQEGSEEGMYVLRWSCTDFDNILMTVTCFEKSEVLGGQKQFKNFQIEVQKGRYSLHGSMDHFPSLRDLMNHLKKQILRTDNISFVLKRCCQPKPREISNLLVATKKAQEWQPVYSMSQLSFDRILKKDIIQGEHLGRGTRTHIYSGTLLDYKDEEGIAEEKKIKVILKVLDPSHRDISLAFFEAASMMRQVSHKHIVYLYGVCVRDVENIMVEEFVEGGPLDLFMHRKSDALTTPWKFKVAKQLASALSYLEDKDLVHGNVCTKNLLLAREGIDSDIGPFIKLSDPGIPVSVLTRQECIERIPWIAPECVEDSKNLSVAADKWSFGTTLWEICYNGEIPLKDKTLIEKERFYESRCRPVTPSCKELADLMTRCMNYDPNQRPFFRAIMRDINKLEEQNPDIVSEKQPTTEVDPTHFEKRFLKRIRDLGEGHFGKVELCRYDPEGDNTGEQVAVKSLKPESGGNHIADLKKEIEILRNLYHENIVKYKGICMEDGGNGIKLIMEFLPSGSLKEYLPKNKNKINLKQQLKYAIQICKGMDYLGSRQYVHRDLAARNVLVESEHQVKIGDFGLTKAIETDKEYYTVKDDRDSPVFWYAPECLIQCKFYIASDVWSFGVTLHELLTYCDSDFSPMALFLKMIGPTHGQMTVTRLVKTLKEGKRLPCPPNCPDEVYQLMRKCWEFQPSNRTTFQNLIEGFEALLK
UniProt P29351: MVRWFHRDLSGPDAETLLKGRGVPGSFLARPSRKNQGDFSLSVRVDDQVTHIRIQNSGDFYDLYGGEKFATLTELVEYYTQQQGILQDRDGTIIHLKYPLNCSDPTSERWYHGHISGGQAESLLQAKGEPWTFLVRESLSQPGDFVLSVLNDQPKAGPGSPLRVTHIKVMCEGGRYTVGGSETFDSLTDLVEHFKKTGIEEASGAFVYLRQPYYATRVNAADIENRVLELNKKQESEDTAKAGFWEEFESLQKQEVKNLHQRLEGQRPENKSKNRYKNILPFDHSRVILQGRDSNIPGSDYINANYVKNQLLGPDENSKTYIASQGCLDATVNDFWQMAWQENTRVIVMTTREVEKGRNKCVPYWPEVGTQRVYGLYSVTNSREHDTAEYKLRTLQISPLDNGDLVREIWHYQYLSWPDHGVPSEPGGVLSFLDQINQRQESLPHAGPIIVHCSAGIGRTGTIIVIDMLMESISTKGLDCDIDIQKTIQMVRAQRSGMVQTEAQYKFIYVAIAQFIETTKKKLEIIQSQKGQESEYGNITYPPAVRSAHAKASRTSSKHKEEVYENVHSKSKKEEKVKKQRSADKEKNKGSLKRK

Assay [1] concerns the target T1, paired immunoglobulin-like receptor B (PirB) (mouse (endogenous in murine macrophages)) (UniProt P97484).
T1 sequence: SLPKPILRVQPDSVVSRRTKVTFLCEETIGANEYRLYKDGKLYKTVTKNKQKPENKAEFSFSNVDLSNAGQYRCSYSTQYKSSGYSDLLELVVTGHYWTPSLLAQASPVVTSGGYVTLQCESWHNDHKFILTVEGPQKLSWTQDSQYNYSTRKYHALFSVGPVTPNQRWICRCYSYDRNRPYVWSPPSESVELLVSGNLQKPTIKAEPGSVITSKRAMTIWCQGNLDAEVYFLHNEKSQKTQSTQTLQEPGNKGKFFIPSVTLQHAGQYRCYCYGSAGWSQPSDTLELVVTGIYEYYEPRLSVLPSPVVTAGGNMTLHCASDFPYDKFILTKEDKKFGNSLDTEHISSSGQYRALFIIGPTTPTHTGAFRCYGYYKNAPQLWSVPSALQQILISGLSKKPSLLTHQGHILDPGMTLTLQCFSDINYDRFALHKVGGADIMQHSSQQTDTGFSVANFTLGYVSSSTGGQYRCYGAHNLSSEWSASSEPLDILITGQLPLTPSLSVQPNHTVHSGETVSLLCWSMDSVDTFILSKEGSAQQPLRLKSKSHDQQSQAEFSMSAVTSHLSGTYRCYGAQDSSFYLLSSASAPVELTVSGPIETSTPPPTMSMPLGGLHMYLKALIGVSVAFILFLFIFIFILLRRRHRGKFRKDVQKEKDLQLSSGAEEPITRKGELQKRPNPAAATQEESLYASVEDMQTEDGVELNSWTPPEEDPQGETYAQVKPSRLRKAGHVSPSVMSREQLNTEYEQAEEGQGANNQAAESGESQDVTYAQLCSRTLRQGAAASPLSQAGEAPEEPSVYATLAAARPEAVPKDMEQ
Nature of the assay: co-IP; anti-PirB immunoprecipitation from PirB^flox macrophages, p-Shp1 detected; PirB^MΦKO macrophages as control.

Assay [2] deals with Jak1 (mouse (endogenous in murine macrophages)) (UniProt P52332). Nature of the assay: co-IP; immunoprecipitation with an anti-Jak1 antibody (or IgG control) from PirB^MΦKO macrophages with or without transfected WT PirB or Myc-tagged PirB^3Y-F, exposed to acLDL for 24 h; densitometric analysis of Shp1.
Assay [3] concerns the target T2, Traf6 (mouse (endogenous in murine macrophages)) (UniProt P70196).
T2 sequence: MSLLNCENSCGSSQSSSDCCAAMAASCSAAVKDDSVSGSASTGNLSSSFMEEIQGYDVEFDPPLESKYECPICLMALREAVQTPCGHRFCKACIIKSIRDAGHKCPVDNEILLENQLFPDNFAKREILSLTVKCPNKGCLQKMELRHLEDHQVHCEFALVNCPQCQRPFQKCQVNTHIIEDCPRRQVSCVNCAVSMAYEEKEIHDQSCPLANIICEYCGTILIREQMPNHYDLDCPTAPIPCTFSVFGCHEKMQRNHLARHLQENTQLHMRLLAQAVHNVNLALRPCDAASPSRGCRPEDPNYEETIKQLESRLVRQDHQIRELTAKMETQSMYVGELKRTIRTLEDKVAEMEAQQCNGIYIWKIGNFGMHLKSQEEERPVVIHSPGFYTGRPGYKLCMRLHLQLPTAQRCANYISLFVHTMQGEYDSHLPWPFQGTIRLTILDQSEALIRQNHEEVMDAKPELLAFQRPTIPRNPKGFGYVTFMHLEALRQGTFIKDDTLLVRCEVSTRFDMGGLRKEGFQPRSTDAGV
The assay can be described thus: co-IP; immunoprecipitation with an anti-Traf6 antibody (or IgG control) from PirB^MΦKO macrophages with or without transfected WT PirB or Myc-tagged PirB^3Y-F; densitometric analysis of Shp1.

No constants are given. Whether binding was seen depends on the method and setting. Binding seen in cells or lysates may run through a third protein. Some binding calls cover weakened binding; strength is not graded here.

“phosphorylated Src homology 2 domain-containing phosphatase 1 (p-Shp1) (from UniProt P29351 1-595) (enzyme)”: the binding entry in assay [1] is “binds”.
With “Src homology 2 domain-containing phosphatase 1 (Shp1) (from UniProt P29351 1-595) (enzyme)”, the binding result in assay [2] and in assay [3] was “binds” in each case.
